Values of other authors, collected in patent US20050059682A1, “Compositions and methods for treatment of cancer” (priority 2003, published 2005).
At least one structure is not confirmed: it was looked up by name or label, or the drawing left a doubt.

Test system: circulating androstenedion, dihydroepiandrosterone and dihydroepiandrosterone sulfate
Details: patients with metastatic prostate cancer after previous hormone therapy has failed

Cc1ccc(C(=O)Nc2ccc(S(=O)(=O)O)c3cc(S(=O)(=O)O)cc(S(=O)(=O)O)c23)cc1NC(=O)c1cccc(NC(=O)Nc2cccc(C(=O)Nc3cc(C(=O)Nc4ccc(S(=O)(=O)O)c5cc(S(=O)(=O)O)cc(S(=O)(=O)O)c45)ccc3C)c2)c1 [Suramin sodium, suramin sodium]
decrease of circulating androstenedion, dihydroepiandrosterone and dihydroepiandrosterone sulfate: 40%
